# Test results from PubChem BioAssay AID651558 (National Center for Advancing Translational Sciences (NCATS), 2012).
# Screen size: about 1,200 compounds; about 480 (40%) were called active. Inconclusive results, whose numbers are uncertain, are shown with a selection of clear calls. Calls follow the shape of the dose curve; as a rule, active = well fitted inhibition curve with a large enough effect; inconclusive = small, poorly fitted or top-dose-only effect; inactive = no such curve, though single readings can be large or run the other way. Potencies beside an inconclusive call are fits to weak or partial responses and may not hold up.
# Test: qHTS Assay to Find Inhibitors of Chronic Active B-Cell Receptor Signaling: Hit Validation in Primary Screen; also: nearly all actives have a fitted effect of over 75% in size
# Details: ABC-DLBCL IkB-luc/CBR ratio luminescence, 4 h; series mostly up to 46.1 µM
# Outline: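 Concentration series (3 nM to 46 uM) tested on TMD8 cells induced with doxycycline for 4 h. Filter-corrected green (IkBa fusion) over red (unfused) luciferase signal; Data were normalised to 10 uM MG-132 and untreated cell wells.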
# Potency is read from the fitted curve at half-maximal effect.
row,SMILES,Potency
1,CCCC1=Nc2cc(C(=O)NC3CCCCC3)ccc2Sc2ccc(C)cc21,active: 0.259 µM
2,Nc1ncnc2c1ncn2[C@@H]1O[C@H](COP(=O)(O)O)[C@@H](O)[C@H]1O,inactive
3,CC[C@]12c3[nH]c4cc(CCC(=O)N(C)C)ccc4c3CCN1C(=O)[C@@H](CC(=O)NC(C)(C)C)C[C@@H]2C(=O)N1CCN(C(=O)c2ccco2)CC1,"inconclusive: 13 µM [inhibitor, partial curve]"
4,O=c1[nH]c(-c2ccccn2)nc2sc(-c3ccccc3)cc12,active: 2.31 µM
5,CC1=CC(C)(C)N(S(=O)(=O)c2ccc(C)cc2)c2ccc(C)cc21,"inconclusive: 4.11 µM [inhibitor, full curve]"
6,COc1cc(/C=C2\N=C(c3ccccc3)NNC2=O)cc(OC)c1OC,"inconclusive: 5.17 µM [inhibitor, full curve]"
7,CCCCn1c(=O)c(F)cn(Cc2ccc(OC)c([N+](=O)[O-])c2)c1=O,inactive
8,Nc1ccc(C(=O)Nc2ccccc2N)cc1,"inconclusive: 13 µM [inhibitor, partial curve]"
9,COc1ccc(COC(=O)C2=C(C)NC(=O)NC2c2cc(Br)c(O)c(OC)c2)cc1 (centres undefined),"inconclusive: 11.6 µM [inhibitor, partial curve]"
10,O=C(CCCN1C(=O)/C(=C/c2ccccc2OC(F)F)SC1=S)Nc1cccnc1,active: 7.31 µM
11,CCOC(=O)C1C(C(=O)OC)=C(c2ccc(OC)cc2)c2ccccc2N1S(=O)(=O)C(F)(F)F (centres undefined),inactive
12,CC1(C)N=c2ccc([N+](=O)[O-])c(N)c2=[N+]1[O-],inactive
13,COc1cc(/C=C/c2ccc3cccc(O)c3n2)cc(Cl)c1OC,"inconclusive: 9.2 µM [inhibitor, partial curve]"
14,Cc1ccc(S(=O)(=O)Nc2cccc3cccnc23)cc1,active: 8.2 µM
15,CCC(=O)[C@@]1(C)[C@H](C)C[C@H]2[C@@H]3CCC4=CC(=O)C=C[C@]4(C)[C@H]3[C@@H](O)C[C@@]21C,inactive
16,C(=N\Nc1nc2ccccc2[nH]1)/C1CCCCC1,inactive
17,CCn1c(O)c(N=NC(=S)NCC2CCCO2)c2ccccc21 (centres undefined),inactive
18,O=C(Oc1ccc2ccc(OC(=O)N3CCOCC3)cc2c1)N1CCOCC1,inactive
19,S=c1nc2ccccc2c2nc(-c3ccccc3Cl)[nH]n12,inactive
20,CC(C)(C)c1ccc(C(=O)CCC(=O)NCc2ccccc2)cc1,"inconclusive: 16.4 µM [inhibitor, single point]"
21,CCCNc1nc(-c2ccccc2)c(C(=O)OCC)cc1C#N,active: 18.4 µM
22,Oc1ccccc1/C=N/Nc1ccnc(SCc2ccccc2)n1,inactive
23,COc1ccc(-c2cc(C(=O)N/N=C(\C)c3cccnc3)c3ccccc3n2)cc1,inactive
24,O=C(NCCc1ccccc1)c1coc(=O)c(Br)c1,"inconclusive: 20.6 µM [inhibitor, partial curve]"
25,COc1ccc2c(c1)OC(=O)CC2c1cc(OC)c(OC)c(OC)c1 (centres undefined),"inconclusive: 14.6 µM [inhibitor, partial curve]"

row,SMILES,Potency
1,CCOC(=O)N1CCC(NC(=O)CS(=O)(=O)Cc2nc(-c3ccccc3C)oc2C)CC1,inactive
2,CCN1C(=O)c2cccc3c(S(=O)(=O)Nc4ccccc4O)ccc1c23,inactive
3,Cc1ccc(O)c(N=Nc2nccs2)c1,"inconclusive: 29.1 µM [inhibitor, partial curve, poor fit]"
4,Clc1cncc(Cl)c1N/N=C/c1ccncc1,"inconclusive: 20.6 µM [inhibitor, partial curve]"
5,CCN(CC(=O)Nc1ccccc1SC)Cc1nc2ccccc2c(=O)[nH]1,inactive
6,Oc1[nH]c2ccc(Br)cc2c1N=NC(=S)Nc1ccc(F)cc1,inactive
7,COC(=O)c1ccc(C)c(NS(=O)(=O)c2ccc(OC)cc2)c1,active: 1.84 µM
8,CCOc1cc(-c2nnc(SCC(=O)NCc3ccccc3)nc2-c2ccc(OC)c(OCC)c2)ccc1OC,active: 2.59 µM
9,COc1ccc(-c2cc(C(F)(F)F)n3nc(C(=O)NCCCn4ccnc4)cc3n2)cc1,"inconclusive: 20.6 µM [inhibitor, partial curve]"
10,COc1ccc(CCNC(=O)Cn2c(=O)cnc3ccccc32)cc1,"inconclusive: 16.4 µM [inhibitor, single point]"
11,CCN(CC)c1ccc(NC(=O)CN2CCN(CC(=O)Nc3ccccc3F)CC2)cc1,"inconclusive: 20.6 µM [inhibitor, partial curve, poor fit]"
12,Cc1cccc(C)c1NC(=O)CNC(=O)CNC(=O)Cc1cccc2ccccc12,inactive
13,COc1cc2c(cc1OC)C(c1ccc(OC)c(OC)c1OC)CC(=O)N2 (centres undefined),active: 23.1 µM
14,COc1ccc(NC(=O)Cn2nnc(-c3ccccc3NS(=O)(=O)c3ccc(OC)cc3)n2)cc1,"inconclusive: 29.1 µM [inhibitor, single point]"
15,CN(C)/C=N/c1sc2c(c1C#N)CCCC2,"inconclusive: 13 µM [inhibitor, partial curve, poor fit]"
16,O=c1cnnc(N/N=C/C2CC=CCC2)[nH]1 (centres undefined),inactive
17,CCOC(=O)c1cnc(Nc2nc3ccccc3o2)nc1CSC(=S)N(CC)CC,inactive
18,CCOc1ccc(Cl)cc1C1=CC(=O)C[C@H](c2ccc(OC)cc2)C1,"inconclusive: 11.6 µM [inhibitor, partial curve]"
19,CCOC(=O)C1=C(O)c2ccccc2C(=O)/C1=C\c1ccc(CC)cc1,"inconclusive: 16.4 µM [inhibitor, partial curve]"
20,COc1cc(Cc2nccc3cc(OC)c(OC)cc23)c(NC(C)=O)cc1OC,"inconclusive: 13 µM [inhibitor, partial curve]"
21,O=c1cc(CSc2ccc(Cl)cc2)nc(-c2ccccn2)[nH]1,"inconclusive: 5.17 µM [inhibitor, full curve]"
22,CC1=NN(C(N)=S)C(=O)C1N=Nc1ccc(C)c(Br)c1 (centres undefined),inactive
23,COc1cc(NC(=O)CSc2nc3[nH]ncc3c(=O)n2-c2ccccc2C)cc(OC)c1OC,"inconclusive: 10.3 µM [inhibitor, partial curve]"
24,COc1c(Cl)cc(C(=O)NN)cc1Cl,inactive

# Sorted by SMILES length (rising): some entries from above.
row,SMILES,Potency
4,O=c1[nH]c(-c2ccccn2)nc2sc(-c3ccccc3)cc12,active: 2.31 µM
12,CC1(C)N=c2ccc([N+](=O)[O-])c(N)c2=[N+]1[O-],inactive
12,Cc1cccc(C)c1NC(=O)CNC(=O)CNC(=O)Cc1cccc2ccccc12,inactive
